The series is described as follows: general procedure: Fmoc solid-phase peptide synthesis; Rink Amide MBHA Resin (Novabiochem, 200–400 mesh, 0.60 mmol g^–1 loading); PyBOP/DIPEA. The settings on record: whole synthesis; for isolated yield: scale of the general procedure 0.15 mmol.

For Cys-Tat peptide, the isolated mass is 24 mg and the isolated yield turned out to be 40%.
Tat-GYKC peptide gave an isolated mass of 20 mg and an isolated yield of 33%.
Turning to azidopeptide 13, the isolated mass is on record as 24 mg and the isolated yield worked out at 55%.
